Results on 61 compounds are retold here after PubChem BioAssay AID2685 (National Center for Advancing Translational Sciences (NCATS), 2010).

The other results are listed elsewhere or left out. Further columns of the screen follow, without active or inactive calls. Most of these compounds were active or inconclusive in the main read-out, so they are no random draw. The note in brackets gives the kind of curve behind each potency; many fits are weak.

The term AC50 denotes the concentration at which the activity in the assay is half-maximal. Low readings indicate greater potency, high ones weaker potency.

The test is described as follows: qHTS Assay for Lipid Storage Modulators in Drosophila S3 Cells.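 For cell number change: cells counted by Cell Tracker Red CMTPX staining in the red channel.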 The conditions noted are these: BODIPY lipid droplet fluorescence, 18-24 h; for cell number change: measured here: cell count max response, cells fed with added oleic acid. The gist of the method: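 Drosophila S3 cells loaded with oleic acid (400 uM, as added) and compounds at several concentrations; lipid droplets imaged by 488-nm laser-scanning cytometry, 500–530 nm intensity and object ratio to cell channel. Percent activity normalized to 20 uM Triacsin C.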

Setting [1] is: measured here: cell number channel AC50, cells fed with added oleic acid.
The mark [2] stands for this setting: measured here: lipid fluorescence (Fed channel) AC50, cells fed with added oleic acid.

Regarding `CCNS(=O)(=O)c1ccc(NC(=O)c2cccnc2)cc1`, the cell number change came out at 0.372%.

Regarding `CC12CCC(=O)N1C(C(=O)NCCN1C(=O)S/C(=C\c3ccccc3Cl)C1=O)CS2` (stereo unspecified), the cell number change is -20.5%. Further, under setting [1], the AC50 is 0.146 µM [falling, full curve, poor fit]. Further, the concentration at half-maximal activity (AC50) under setting [2] is 14.6 µM [falling, partial curve].

As to `COc1cc(C(=O)NCCc2ccc3c(c2)OCCO3)ccc1OCC(=O)N1CCOCC1`, the cell number change is 51.6%. In addition, the AC50 under setting [1] is 29.1 µM [rising, single point]. Besides, under setting [2], the half-maximal activity concentration (AC50) was 5.17 µM [falling, full curve, poor fit].

As to `CC(=O)N1CCc2c(sc(NC(=O)c3ccc4c(c3)OCCO4)c2C#N)C1`, the AC50 under setting [1] is 3.26 µM [rising, single point].

On to `COc1ccccc1NS(=O)(=O)c1ccc(C(=O)N2CCCC(C)C2)cc1` (stereo unspecified), for which the cell number change was -26.5%.

`COc1ccccc1NC(=O)N1CCOCC1`: the cell number change was -27.9%. Moreover, the AC50 under setting [2] was 29.1 µM [falling, single point].

Take `Cc1nc2c3cc(F)ccc3n(Cc3ccccc3)c2s1`: the AC50 under setting [2] was 0.00461 µM [falling, full curve, poor fit].

On to `CC1CCC(NC(=O)CN2C(=O)NC3(CCCCC3C)C2=O)CC1` (stereo unspecified), for which the cell number change is 6.83%.

Regarding `Cc1nc(-c2nc(-c3c(C(=O)NNC(=O)Nc4cccc(Cl)c4)noc3C)cs2)cs1`, the cell number change was determined as 20.9%. Moreover, under setting [1], the concentration at half-maximal activity (AC50) was 3.26 µM [rising, single point]. Besides, the AC50 under setting [2] is 18.4 µM [rising, single point].

For `CCCCCC(=O)N/N=C(\C)c1ccccn1`, the AC50 is 0.0651 µM [rising, partial curve, poor fit] under setting [1] and 2.06 µM [rising, partial curve] under setting [2].

In the case of `Cc1ccccc1C(=O)OCC(=O)N(C)c1c(N)n(Cc2ccccc2)c(=O)[nH]c1=O`, the cell number change was 4.41%.

As for `COc1ccc(N2CCN(CCNC(=O)c3ccc4nc5ccccc5c(=O)n4c3)CC2)cc1`, the cell number change is -23.6%.

Turning to `COc1ccc(OCC(=O)NCCCCCCNC(=O)COc2ccc(OC)cc2)cc1`, the cell number change came out at 14.2%. For the same compound, the AC50 under setting [2] was 29.1 µM [rising, single point].

Take `COc1cccc(CNC(=O)C2CCCN(S(C)(=O)=O)C2)c1` (stereo unspecified): the cell number change turned out to be 10.2%.

Turning to `COc1ccc(C)cc1S(=O)(=O)N(C)CC(=O)N1CCN(C)CC1`, the cell number change is -74.2%. In addition, under setting [1], the AC50 is 7.31 µM [falling, full curve].

On to `Cc1ccc(CCNC(=O)C2CCC(=O)N2C2CCCC2)cc1` (stereo unspecified), for which the cell number change was -87.3%. Also, the AC50 under setting [1] was 14.6 µM [falling, partial curve]. Further, the AC50 under setting [2] is 29.1 µM [falling, single point].

Regarding `Cc1cc2c3c(c1C)C(=O)C(=O)N3C(C)(C)CC2C` (stereo unspecified), the cell number change is -30.6%. Also, under setting [2], the AC50 was 16.4 µM [falling, single point].

As for `O=[N+]([O-])c1ccc2cn[nH]c2c1`, the AC50 is, setting by setting: under setting [1], 0.13 µM [rising, full curve, poor fit]; under setting [2], 0.206 µM [rising, full curve].

As for `CN(C)/C=N/C(=S)Nc1ccccc1F`, the cell number change is 31.7%. Also, the AC50 under setting [1] is 2.91 µM [rising, single point].

Take `Cc1ccc(S(=O)(=O)NCCCCCC(=O)Nc2ccccc2C)cc1`: the cell number change was -8.23%. Further, the AC50 under setting [2] was 14.6 µM [rising, partial curve, poor fit].

Turning to `COc1cc(OC)cc(-c2nc3nc(C)c(CCC(=O)O)c(C)n3n2)c1`, the cell number change came out at 8.79%. Moreover, the concentration at half-maximal activity (AC50) under setting [2] was 29.1 µM [rising, single point].

In the case of `COc1cc(/C=C/C(=O)N2CC(C)OC(C)C2)cc(OC)c1OC` (stereo unspecified), the cell number change worked out at 0.275%. Under setting [2], the AC50 is 6.51 µM [rising, single point].

`O=c1c2ccccc2nc(SCCN2CCCCC2)n1CCc1ccccc1`: the cell number change was -0.289%. For the same compound, the AC50 under setting [2] is 3.26 µM [falling, partial curve].

Regarding `COc1ccc(NC(C(=O)Nc2cccc(C(C)=O)c2)c2ccccc2)cc1` (stereo unspecified), the cell number change was found to be 15.2%.

Take `Clc1cccc(C2Nc3cccc4cccc(c34)N2)c1Cl`: the cell number change is -53.3%. Besides, under setting [1], the AC50 is 13 µM [falling, partial curve]. Further, the concentration at half-maximal activity (AC50) under setting [2] is 1.84 µM [falling, full curve].

Consider `CCc1ccc(C2=CC(c3cc(Br)ccc3F)n3ncnc3N2)cc1` (stereo unspecified), for which the cell number change was -13.4%. The AC50 under setting [2] is 16.4 µM [falling, single point].

Consider `Cc1nnc(C)n1/N=C/c1ccc(O)cc1`, for which the cell number change is -29.6%. Also, the AC50 under setting [2] was 13 µM [falling, partial curve].

`CCc1ccccc1NC(=O)COC(=O)C1C2CC3OC(=O)C1C3C2` (stereo unspecified): the cell number change stood at 2.1%. Besides, the AC50 under setting [2] was 0.206 µM [falling, single point].

Regarding `COc1cccc(C(=O)NCCSCc2ccccc2Cl)c1`, the cell number change was 12.2%.

On to `O=C(c1ccccc1)c1ccc(C(=O)N2CCCC(C(F)(F)F)C2)cc1` (stereo unspecified), for which the cell number change is -31.4%. Moreover, under setting [1], the AC50 was 25.9 µM [falling, partial curve]. For the same compound, under setting [2], the AC50 is 0.366 µM [falling, partial curve, poor fit].

Take `COCCn1c(C)cc(C(=O)COC(=O)c2cc3c(s2)CCC3)c1C`: the cell number change was determined as 43.1%. In addition, the AC50 under setting [1] is 29.1 µM [rising, single point].

As for `CC(C)(C)OC(=O)CNC(=O)c1[nH]cnc1C(=O)NC(c1ccccc1)c1ccccc1`, the cell number change was -7.78%.

On to `CC(C)(C)CC(=O)Nc1ccc(-c2cn3cccnc3n2)cc1`, for which the cell number change was -1.8%. Further, under setting [2], the AC50 was 0.00517 µM [falling, full curve, poor fit].

`CCOc1cc(/C=N/O)cc(Cl)c1OC`: the AC50 under setting [2] was 29.1 µM [rising, single point].

On to `CCCCn1c(SCC(=O)/C(C#N)=C(\C)N)nc2ccccc2c1=O`, for which the AC50 runs as follows: under setting [1], 0.58 µM [falling, single point]; under setting [2], 23.1 µM [rising, partial curve].

As for `O=CN1CCN(C(=O)COc2ccc(Cl)cc2Br)CC1`, the cell number change is -3.86%. Further, the AC50 under setting [2] is 23.1 µM [rising, single point].

As for `O=[N+]([O-])c1ccc(/C=N/Nc2nc(N3CCCCCC3)nc(N3CCCCCC3)n2)o1`, the cell number change was -23.8%. In addition, the AC50 under setting [2] is 29.1 µM [falling, single point].

Consider `Cc1ccc(NC(N)=S)cc1C`, for which the cell number change turned out to be 0.341%. Further, the AC50 under setting [1] is 0.58 µM [falling, single point]. Under setting [2], the AC50 was 0.92 µM [falling, single point].

As to `O=C(CSc1ncn[nH]1)NC12CC3CC(CC(C3)C1)C2`, the cell number change is -17.2%. For the same compound, under setting [2], the AC50 is 29.1 µM [falling, single point].

Take `CC(NC(=O)c1ccc(Cl)cc1)c1nnc(SCC(=O)NC2=NCCS2)n1C` (stereo unspecified): the cell number change was -28.9%. For the same compound, the AC50 under setting [1] is 4.61 µM [falling, full curve, poor fit].

Consider `CCOC(=O)c1sc(N)c(C#N)c1COC(=O)CNC(=O)c1ccccc1`, for which the cell number change is -8.13%. In addition, the AC50 under setting [2] was 0.461 µM [rising, full curve].

Regarding `CCN(CC)CCN1C(=O)C(=O)/C(=C(/O)c2ccc(S(=O)(=O)N3CCOCC3)cc2)C1c1ccc(C)cc1` (stereo unspecified), the cell number change came out at 4.01%.

In the case of `Clc1nc(-c2ccccn2)nc2scc(-c3ccccc3)c12`, the AC50 under setting [1] is 1.64 µM [rising, partial curve].

In the case of `Cc1csc(NC(=O)CSc2sc3c(O)cc(=O)[nH]c3c2C#N)n1`, the cell number change worked out at 18.8%. In addition, the concentration at half-maximal activity (AC50) under setting [2] was 4.11 µM [rising, single point].

As to `CN(C)S(=O)(=O)c1cccc(NC(=O)c2cc(=O)[nH]c3ccccc23)c1`, the cell number change came out at 16.9%. Also, the concentration at half-maximal activity (AC50) under setting [2] is 29.1 µM [rising, single point].

`CC(=O)Nc1nonc1-c1ccccc1`: the cell number change is -1.23%. Also, the AC50 under setting [2] was 3.66 µM [falling, full curve, poor fit].

Regarding `Oc1ccccc1-c1nnc(COc2ccc(Cl)cc2Cl)o1`, the cell number change amounted to 16.8%. The AC50 under setting [2] is 0.651 µM [falling, full curve].

As for `CCC(C)(C)NC(=O)C(c1ccc(OC)cc1)N(Cc1ccccc1)C(=O)CCC(=O)Nc1cc(C)on1` (stereo unspecified), the cell number change was 19.1%.

Consider `COC(=O)CSc1nnc(-c2ccco2)o1`, for which the cell number change is -3.3%.

`C/C(N)=C(/C#N)C(=O)CSc1nnc(-c2ccccc2Br)o1`: the AC50 reads like this: under setting [1], 0.366 µM [rising, full curve, poor fit]; under setting [2], 1.84 µM [rising, partial curve].

`CN(C)CCCN(C(=O)COc1ccccc1)c1nc2c(Cl)cccc2s1`: the cell number change is -48.6%. Further, the AC50 under setting [1] is 29.1 µM [falling, single point]. Further, under setting [2], the AC50 was 0.58 µM [falling, partial curve, poor fit].

Consider `CC(=O)N(Cc1cc2cc(C)c(C)cc2n2nnnc12)CC1COCCO1` (stereo unspecified), for which the cell number change amounted to 40.5%. Moreover, the AC50 under setting [1] is 0.164 µM [rising, full curve, poor fit].

Turning to `O=C(Nc1ccccc1Cl)N1CCN(c2ccc3nnc(-c4ccccc4)n3n2)CC1`, the AC50 by setting is: under setting [1], 6.51 µM [rising, single point]; under setting [2], 6.51 µM [rising, single point].

For `CCOC(=O)c1ccc(NC(=O)C(CC)CC)cc1`, the cell number change turned out to be 8.23%.

As to `COc1ccc(C(=O)CN2C(=O)NC3(CCCc4ccccc43)C2=O)c(OC)c1` (stereo unspecified), the cell number change came out at 7.57%. Moreover, the AC50 under setting [2] was 18.4 µM [falling, single point].

For `Fc1ccc(-c2nn(-c3ccccc3)cc2CNCc2ccccc2)cc1`, the cell number change is -17.8%.

Turning to `Cc1ccc([C@@H]2[C@@H]3C(=O)N(C)C(=O)[C@@H]3[C@]3(C)C(=O)N(CCO)CC(=O)N23)o1`, the cell number change came to 18.3%. Besides, the AC50 under setting [1] was 0.0517 µM [rising, full curve, poor fit].

Consider `CC(C(=O)Nc1ccccc1)c1ccc(-c2ccccc2)c(F)c1` (stereo unspecified), for which the cell number change came out at 77.4%. Besides, under setting [1], the AC50 is 8.2 µM [rising, partial curve]. For the same compound, under setting [2], the AC50 was 23.1 µM [rising, partial curve].

As for `Cn1cc(CN2CCC(n3nccc3NC(=O)c3ccccc3Cl)CC2)c2ccccc21`, the cell number change was 4.61%. Besides, the AC50 under setting [1] is 3.66 µM [rising, partial curve]. Under setting [2], the AC50 was 3.66 µM [rising, full curve].

As for `N#CC1(C#N)[C@@H](C(=O)C23CC4CC(CC(C4)C2)C3)C12CCOCC2`, the cell number change is -21.5%. Moreover, the AC50 under setting [1] is 7.31 µM [falling, partial curve, poor fit]. Under setting [2], the AC50 was 0.326 µM [falling, partial curve, poor fit].

Consider `COc1ccc(-n2nc3cc(C)c(NC(=O)c4cccnc4)cc3n2)cc1`, for which the cell number change worked out at 17.1%. Further, the AC50 under setting [1] was 0.461 µM [rising, full curve]. Also, the AC50 under setting [2] is 1.46 µM [rising, full curve].
